Measurements as given in patent US20220275038A1 (TOKYO MEDICAL UNIVERSITY, published 2022).
These are yes or no findings as the source states them, for the method shown. Binding seen in cells or lysates may run through a third protein. Some results given as binding are weak or reduced against the parent protein; the word gives no strength. Tags and fused reporters may be left off the sequences shown.

By UniProt entry, the sequences of proteins in these tests, tags left out. Where a name states a change or a piece, a line headed by the entry shows the natural chain unless it says otherwise.
UniProt Q15848: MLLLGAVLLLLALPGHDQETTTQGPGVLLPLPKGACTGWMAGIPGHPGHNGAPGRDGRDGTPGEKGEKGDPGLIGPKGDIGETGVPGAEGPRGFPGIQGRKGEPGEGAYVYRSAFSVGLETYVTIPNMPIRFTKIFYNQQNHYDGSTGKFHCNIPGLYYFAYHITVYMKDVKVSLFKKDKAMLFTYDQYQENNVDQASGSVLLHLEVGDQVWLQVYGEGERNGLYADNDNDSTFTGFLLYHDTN

Tests used:
[1] = target: adiponectin C-terminally tagged with FLAG (overexpressed in F11 cells, immunoprecipitated with FLAG antibody) (human) (UniProt Q15848); experiment: pull-down with immunoprecipitated adiponectin, myc immunoblot (FIG. 9)
[2] = target: adiponectin C-terminally tagged with FLAG (overexpressed in F11 cells, immunoprecipitated with FLAG antibody) (human) (UniProt Q15848); experiment: pull-down of purified MycHis-tagged CLSP proteins with ADN-FLAG immunoprecipitated on M2 agarose beads, WB anti-myc [ADN beads]

B1: CLSP deletion mutant EHR, C-terminally tagged with MycHis (consists of only the endogenous humanin-homogenous region) (peptide)
chain: TGKNLSEAQLRKLISEVDSDGD
notes: also called mutants consisting of only EHR; not shown: C-terminal MycHis tag
binding [1]: binds
binding [2]: binds
